Laboratory results: PubChem BioAssay AID1259424 (University of Nebraska Medical Center, 2018)
In all, the deposit lists about 14,000 reagents; shown is a part drawn at random. 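Higher correlation or smaller distance means closer resemblance to KSR1 loss; control wells, including KSR1 knockdowns, recur on many plates.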 Not all columns of the deposit are shown. Not given: the time to read-out.

- Purpose: 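Find knockdowns that reproduce the expression shifts seen after KSR1 loss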 (primary screen)
- Cells: human HCT116 colon cancer cells
- Knock-down reagent: siRNA pool against human genes, 50 nM
- Measurement: 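Log2 levels of six mRNAs (branched-DNA multiplex), adjusted by two reference genes and the non-targeting median, then scored against the average KSR1 knockdown pattern as Pearson r and euclidean distance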
- Scale: mean correlation with KSR1 profile: higher = expression change more like KSR1 knockdown; mean distance from KSR1 profile: higher = expression change less like KSR1 knockdown

SEC22A: mean correlation with KSR1 profile = 0.171; mean distance from KSR1 profile = 1.82
TRMU: mean correlation with KSR1 profile = -0.221; mean distance from KSR1 profile = 1.7
SLC16A7: mean correlation with KSR1 profile = 0.112; mean distance from KSR1 profile = 1.06
MYH7B: mean correlation with KSR1 profile = -0.117; mean distance from KSR1 profile = 2.05
PNLIPRP2: mean correlation with KSR1 profile = -0.0746; mean distance from KSR1 profile = 2.82
GUF1: mean correlation with KSR1 profile = 0.267; mean distance from KSR1 profile = 1.97
SAYSD1: mean correlation with KSR1 profile = -0.243; mean distance from KSR1 profile = 1.32
AUNIP: mean correlation with KSR1 profile = -0.5; mean distance from KSR1 profile = 1.92
EMP1: mean correlation with KSR1 profile = 0.105; mean distance from KSR1 profile = 2.15
CALY: mean correlation with KSR1 profile = -0.606; mean distance from KSR1 profile = 1.89
EXOC1: mean correlation with KSR1 profile = -0.598; mean distance from KSR1 profile = 2.08
XPA: mean correlation with KSR1 profile = 0.0276; mean distance from KSR1 profile = 1.52
CD200: mean correlation with KSR1 profile = -0.757; mean distance from KSR1 profile = 1.63
PPP1R16A: mean correlation with KSR1 profile = -0.0878; mean distance from KSR1 profile = 1.78
CDK11A: mean correlation with KSR1 profile = 0.755; mean distance from KSR1 profile = 2.06
LY96: mean correlation with KSR1 profile = -0.308; mean distance from KSR1 profile = 1.99
P2RX3: mean correlation with KSR1 profile = 0.0911; mean distance from KSR1 profile = 1.5

In a second layout: entries from further up
Target gene,mean correlation with KSR1 profile,mean distance from KSR1 profile
MYH7B,-0.117,2.05
PNLIPRP2,-0.0746,2.82
GUF1,0.267,1.97
SAYSD1,-0.243,1.32
AUNIP,-0.5,1.92

The list goes on:
PPFIBP1: mean correlation with KSR1 profile = 0.37; mean distance from KSR1 profile = 2.4
CLCN3: mean correlation with KSR1 profile = -0.127; mean distance from KSR1 profile = 1.15
VAPA: mean correlation with KSR1 profile = 0.146; mean distance from KSR1 profile = 1.47
GTF2F1: mean correlation with KSR1 profile = -0.346; mean distance from KSR1 profile = 1.7
NRXN3: mean correlation with KSR1 profile = -0.5; mean distance from KSR1 profile = 0.835
UQCC2: mean correlation with KSR1 profile = 0.248; mean distance from KSR1 profile = 2.08
PISD: mean correlation with KSR1 profile = 0.232; mean distance from KSR1 profile = 5.53
GUCY1B2: mean correlation with KSR1 profile = -0.229; mean distance from KSR1 profile = 2.55
ZSCAN21: mean correlation with KSR1 profile = 0.485; mean distance from KSR1 profile = 3.48
FCGBP: mean correlation with KSR1 profile = 0.0577; mean distance from KSR1 profile = 2.64
NPPA: mean correlation with KSR1 profile = -0.0211; mean distance from KSR1 profile = 1.86
